Tests used:
Balb/c 3T3 fibroblasts [1] = assay: TPC assay (total protein content), Balb/c 3T3; format: cell-based, murine; conditions: Mus musculus, BALB/c3T3; Balb/c 3T3, TPC, 72 h exposure, mean (n = 3) ± SD
Protocol: (§1) The human hepatoma cell line (HepG2) was purchased from the American Type Culture Collection (ATCC HB-8065). These cells were cultured in Minimum Essential Medium Eagle (MEME) (ATCC). The murine fibroblast cell line (Balb/c 3T3 clone A31) was purchased from the American Type Culture Collection (ATCC CCL-163), and the cells were cultured in Dulbecco’s Modified Eagle’s Medium (DMEM) (ATCC). The media were supplemented with 10% BCS (Balb/c 3T3), 10% FBS (HepG2), 1% L-glutamine, and 1% antibiotic solution. The cells were maintained in 75-cm^2 cell culture flasks (NUNC, Roskilde, Denmark) in a humidified incubator, NuAire (Plymouth, MN, USA) at 37 °C and 5% CO2. The medium was refreshed every two days and the cells were trypsinized by 0.25% trypsin–0.02% EDTA after reaching 70–80% confluence. […]
(§2) As a control, cultured cells were grown in the absence of the studied compounds. […] Cytotoxicity was assessed after 72 h of cell exposure to the compounds in darkness. […]
(§3) TPC assay. […] The absorbance was measured at 595 nm in a microplate reader (Synergy HTX multi-mode reader (BioTek® Instruments Inc., Winooski, VT, USA)) using a blank as a reference. Cytotoxicity was expressed as a percentage of the negative control (0.1% DMSO). […]

Balb/c 3T3 fibroblasts [2] = assay: LDH leakage assay (cellular membrane integrity), Balb/c 3T3; format: cell-based, murine; conditions: Mus musculus, BALB/c3T3; Balb/c 3T3, LDH, 72 h exposure, mean (n = 3) ± SD
Protocol: as §1, §2
(§4) LDH leakage assay. The integrity of the plasma membrane was assessed through the test of lactate dehydrogenase (LDH) release, which was monitored using the commercially available Cytotoxicity Detection Kit (LDH) (Roche Diagnostics, Warsaw, Poland). […] The absorbance was measured at 492 nm in a microplate reader (Synergy HTX multi-mode reader (BioTek® Instruments Inc., Winooski, VT, USA)) using a blank as a reference. […]

HepG2 cells [3] = assay: NRU assay (lysosomal activity), HepG2; format: cell-based; conditions: Homo sapiens, 72 h exposure, mean (n = 3) ± SD
Protocol: as §1, §2
(§5) NRU assay. This method is based on staining living cells with neutral red which readily diffuses through the plasma membrane and accumulates in lysosomes. […] After 10 min of shaking, the absorbance of the dissolved NR was measured using a Synergy HTX multi-mode reader (BioTek® Instruments Inc., Winooski, VT, USA) at 540 nm using a blank as a reference. Cytotoxicity was expressed as a percentage of the negative control (0.1% DMSO). […]

HepG2 cells [4] = assay: MTT assay (mitochondrial activity), HepG2; format: cell-based; conditions: Homo sapiens, 72 h exposure, mean (n = 3) ± SD
Protocol: as §1, §2
(§6) MTT assay. The metabolic activity of living cells was assessed by the measurement of the activity of dehydrogenases. […] The plate was shaken for 15 min at room temperature and transferred to a microplate reader (Synergy HTX multi-mode reader (BioTek® Instruments Inc., Winooski, VT, USA)) to measure the absorbance at 570 nm, using a blank as a reference. Cytotoxicity was expressed as a percentage of the negative control (0.1% DMSO). […]

HepG2 cells [5] = assay: LDH leakage assay (cellular membrane integrity), HepG2; format: cell-based; conditions: Homo sapiens, 72 h exposure, mean (n = 3) ± SD
Protocol: as §1, §2, §4

HepG2 cells [6] = assay: TPC assay (total protein content), HepG2; format: cell-based; conditions: Homo sapiens, 72 h exposure, mean (n = 3) ± SD
Protocol: as §1, §2, §3

Balb/c 3T3 fibroblasts [7] = assay: MTT assay (mitochondrial activity), Balb/c 3T3; format: cell-based, murine; conditions: Mus musculus, BALB/c3T3; Balb/c 3T3, MTT, 72 h exposure, mean (n = 3) ± SD
Protocol: as §1, §2, §6

Balb/c 3T3 fibroblasts [8] = assay: NRU assay (lysosomal activity), Balb/c 3T3; format: cell-based, murine; conditions: Mus musculus, BALB/c3T3; Balb/c 3T3, NRU, 72 h exposure, mean (n = 3) ± SD
Protocol: as §1, §2, §5

Clc1ccc(COC(Cn2ccnc2)c2ccc(Cl)cc2Cl)c(Cl)c1 (stereo not shown) [Miconazole, 1-[2-(2,4-dichlorobenzyloxy)-2-(2,4-dichlorophenyl)ethyl]-1H-imidazole]
> 1000 nM: IC20 (Balb/c 3T3 fibroblasts [1]) | IC50 (Balb/c 3T3 fibroblasts [1]) | IC20 (Balb/c 3T3 fibroblasts [2]) | IC50 (Balb/c 3T3 fibroblasts [2]) | IC20 (HepG2 cells [3]) | IC50 (HepG2 cells [3]) | IC20 (HepG2 cells [4]) | IC50 (HepG2 cells [4]) | IC20 (HepG2 cells [5]) | IC50 (HepG2 cells [5]) | IC20 (HepG2 cells [6]) | IC50 (HepG2 cells [6]) | IC20 (Balb/c 3T3 fibroblasts [7]) | IC50 (Balb/c 3T3 fibroblasts [7]) | IC20 (Balb/c 3T3 fibroblasts [8]) | IC50 (Balb/c 3T3 fibroblasts [8])

From publication PMC7279231, “Synthesis, Spectroscopy, Light Stability, Single-Crystal Analysis, and In Vitro Cytotoxic Activity on HepG2 Liver Cancer of Two Novel Silver(I) Complexes of Miconazole” (International Journal of Molecular Sciences, 2020)
